Where two headings read alike, the source gives them in different places. Results are given in words; binding and its absence hold for the method and conditions named. Binding calls can cover weak binding; strength is not graded here. For part of these data: Sequences can lack the tags named with a protein. For part of these data: Binding seen in cells or lysates may run through a third protein.
B1: TERT telomerase essential N-terminal fragment (TEN, 1-233 aa), yeast two-hybrid fusion (domain or fragment, UniProt Q9SPU7 1-233)
chain: MPRKPRHRVPEILWRLFGNRARNLNDAIVDLIPNRNIQPEQCRCRGQGCLGCSSDKPAFLLRSDDPIHYRKLLHRCFVVLHEQTPPLLDFSPTSWWSQREIVERIIEMMQSGCDCQNVICARYDKYDQSSPILELLTSSSWEFLLKRVGHDVMVYLLQQTSIFLPLLGKKHQQVSGPPLCIKHKRTLSVHENKRKRDDNVQPPTKRQWLSSAVDDCPKDDSATITPIVGEDVD
B2: TERT RNA interaction domain 1 fragment (RID1, 1-271 aa), yeast two-hybrid fusion (domain or fragment, UniProt Q9SPU7 1-271)
chain: MPRKPRHRVPEILWRLFGNRARNLNDAIVDLIPNRNIQPEQCRCRGQGCLGCSSDKPAFLLRSDDPIHYRKLLHRCFVVLHEQTPPLLDFSPTSWWSQREIVERIIEMMQSGCDCQNVICARYDKYDQSSPILELLTSSSWEFLLKRVGHDVMVYLLQQTSIFLPLLGKKHQQVSGPPLCIKHKRTLSVHENKRKRDDNVQPPTKRQWLSSAVDDCPKDDSATITPIVGEDVDQHREKKTTKRSRIYLKRRRKQRKVNFKKVDCNAPCITP
B3: Protection of telomeres 1b (POT1b), yeast two-hybrid fusion (protein, UniProt Q6NKX5 1-454)
chain: MEEERRDDYKFLRIQDAFKALHLHVNLIGVIVELGFSNGSDCSCTLKIVDPWYSGSGLPVKFVARTIRDLPRVESIGDIILLSRVKIVLINRKITALCNETTSSSFALFNGKHSVDSIPYQSSPKFLMREQDKNFLSNLREWMITYKFEDGSCCFTSLKDIKEGECSNLSCQIVHISKVYKDRWYLFVWDGTEMPPCNILVKSERLPLCVEPEMLPTYMLRKFPTFGSVLRIIVDRVSEKQAIHCLQPGQHVKLLNLFFQVNMGLWNATFTPSTKMQYTMSREMEAFSPQRMCGEKFSPRWNPIARCISRSHSEITGVAHDDAPFVSLMDILTYHNVTAKFRCVVRFIQVYPRDVRKLRDINGNIKLVAILEDATARIHASLYADEGEKFFGCDESDEEALVKKLNRLLGGEEMEKVPRNPPWVQCCLFSFYKHKMDQWESRRFRIFDTWINAS
B4: Protection of telomeres 1a (POT1a), yeast two-hybrid fusion (protein, UniProt Q56Y52 1-467)
chain: MAKKRESPKLIKIKDAIKLINQQVSLIGIVLEQREPKQCRNNDWICTLRIIDDTYPSPGLTVNVFSKTLEQLPQIKNHDDMILFTRIKMQTFDSGERVNAACSRWVSSFALFEGVDFVCYQCSTNFHEEEALYKSAMDDLRKVFAGCSQVIKAMQSISYRTKPCSEVFSFLREIKIGKRFDLVCRILHADEDTSAVFVWDGTDAPPASILAKRSEEDKAFSSLSVHTLLSRDVLLSFPTVGTILRVHLSSHLFYRVKPGDWVKLYHLLCEVDRGSWVIKVTSSTKVHHLAQDDRLVEKIMRIYDKRLSSKLGHISFWCFPSPPGLTETDDNCAPFVTLMDIITFPKVTCKYRCIVRVVAAYPWQVEDFCSDENRRHHQVLLTLEDSTATLEAFLCNKDAEYFWGLGFQDTETLRKKRNWLLGIRESSNFVAPRNPPWIECCILSYYTNKADPWNTRLYRIFGTRLLH
B5: POT1a (hemagglutinin tag, 35S-labelled), in vitro translated (protein, UniProt Q56Y52 1-467)
chain: B4 chain
modifications: radioactively labelled using 35S-Met
B6: PWO2 N-terminal part (1-216 aa), yeast two-hybrid fusion (domain or fragment, UniProt P59278 1-216)
chain: MESNDDRNLEAINASVGRLVWVRRRNGSWWPGQTLVHDQVPDNSLVGPKVGTPIKLLGRDDVSVDWYILENSKTVKAFRCGEYDTCIEKAKASSSKKRSGKCTLREDAINNALKIENEHLAKEDDNLCNLSGEEDSKRCLSGKEDEDSGSSDAEETEDDELASAPEQLQSSISSQEMNNVGASKVQSKRRRTPNDSEDDGTEGVKRMRGLEDIGKE
B7: EMBRYONIC FLOWER 2 (EMF2), yeast two-hybrid fusion (protein, UniProt Q8L6Y4 1-631)
chain: MPGIPLVSRETSSCSRSTEQMCHEDSRLRISEEEEIAAEESLAAYCKPVELYNIIQRRAIRNPLFLQRCLHYKIEAKHKRRIQMTVFLSGAIDAGVQTQKLFPLYILLARLVSPKPVAEYSAVYRFSRACILTGGLGVDGVSQAQANFLLPDMNRLALEAKSGSLAILFISFAGAQNSQFGIDSGKIHSGNIGGHCLWSKIPLQSLYASWQKSPNMDLGQRVDTVSLVEMQPCFIKLKSMSEEKCVSIQVPSNPLTSSSPQQVQVTISAEEVGSTEKSPYSSFSYNDISSSSLLQIIRLRTGNVVFNYRYYNNKLQKTEVTEDFSCPFCLVKCASFKGLRYHLPSTHDLLNFEFWVTEEFQAVNVSLKTETMISKVNEDDVDPKQQTFFFSSKKFRRRRQKSQVRSSRQGPHLGLGCEVLDKTDDAHSVRSEKSRIPPGKHYERIGGAESGQRVPPGTSPADVQSCGDPDYVQSIAGSTMLQFAKTRKISIERSDLRNRSLLQKRQFFHSHRAQPMALEQVLSDRDSEDEVDDDVADFEDRRMLDDFVDVTKDEKQMMHMWNSFVRKQRVLADGHIPWACEAFSRLHGPIMVRTPHLIWCWRVFMVKLWNHGLLDARTMNNCNTFLEQLQI
B8: VERNALIZATION 2 (VRN2), yeast two-hybrid fusion (protein, UniProt Q8W5B1 1-440)
chain: MCRQNCRAKSSPEEVISTDENLLIYCKPVRLYNIFHLRSLGNPSFLPRCLNYKIGAKRKRKSRSTGMVVFNYKDCNNTLQRTEVREDCSCPFCSMLCGSFKGLQFHLNSSHDLFEFEFKLLEEYQTVNVSVKLNSFIFEEEGSDDDKFEPFSLCSKPRKRRQRGGRNNTRRLKVCFLPLDSPSLANGTENGIALLNDGNRGLGYPEATELAGQFEMTSNIPPAIAHSSLDAGAKVILTTEAVVPATKTRKLSAERSEARSHLLLQKRQFYHSHRVQPMALEQVMSDRDSEDEVDDDVADFEDRQMLDDFVDVNKDEKQFMHLWNSFVRKQRVIADGHISWACEVFSRFYEKELHCYSSLFWCWRLFLIKLWNHGLVDSATINNCNTILENCRNTSVTNNNNNSVDHPSDSNTNNNNIVDHPNDIKNKNNVDNKDNNSRDK
B9: EMF2 (hemagglutinin tag, 35S-labelled), in vitro translated (protein, UniProt Q8L6Y4 1-631)
chain: B7 chain
modifications: radioactively labelled using 35S-Met
B10: VRN2 (hemagglutinin tag, 35S-labelled), in vitro translated (protein, UniProt Q8W5B1 1-440)
chain: B8 chain
modifications: radioactively labelled using 35S-Met

Protein sequences, listed by entry. Tags and fused reporters are not part of them. Lines headed by an entry give the natural chain unless they say otherwise; changes in a name come on top.
UniProt F4I7L1: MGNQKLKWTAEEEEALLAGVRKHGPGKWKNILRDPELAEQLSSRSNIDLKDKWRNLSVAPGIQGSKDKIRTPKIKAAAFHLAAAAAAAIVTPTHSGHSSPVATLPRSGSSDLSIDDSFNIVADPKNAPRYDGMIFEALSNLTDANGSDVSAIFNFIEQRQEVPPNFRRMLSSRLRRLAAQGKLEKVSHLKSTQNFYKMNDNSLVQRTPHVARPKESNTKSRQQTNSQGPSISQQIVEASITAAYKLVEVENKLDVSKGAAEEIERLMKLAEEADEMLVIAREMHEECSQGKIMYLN
UniProt Q9FMR9: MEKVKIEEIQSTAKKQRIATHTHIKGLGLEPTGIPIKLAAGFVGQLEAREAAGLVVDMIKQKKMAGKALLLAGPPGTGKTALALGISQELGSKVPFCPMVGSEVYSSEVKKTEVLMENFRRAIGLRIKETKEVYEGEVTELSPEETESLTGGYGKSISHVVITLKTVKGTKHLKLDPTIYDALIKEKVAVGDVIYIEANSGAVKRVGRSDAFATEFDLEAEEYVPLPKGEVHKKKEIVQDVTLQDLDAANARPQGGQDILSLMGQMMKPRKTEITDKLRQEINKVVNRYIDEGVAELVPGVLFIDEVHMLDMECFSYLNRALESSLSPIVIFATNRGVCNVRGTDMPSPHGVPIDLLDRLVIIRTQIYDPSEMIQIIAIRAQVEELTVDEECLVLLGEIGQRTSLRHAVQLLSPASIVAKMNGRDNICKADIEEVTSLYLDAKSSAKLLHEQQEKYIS
UniProt Q9M9N3: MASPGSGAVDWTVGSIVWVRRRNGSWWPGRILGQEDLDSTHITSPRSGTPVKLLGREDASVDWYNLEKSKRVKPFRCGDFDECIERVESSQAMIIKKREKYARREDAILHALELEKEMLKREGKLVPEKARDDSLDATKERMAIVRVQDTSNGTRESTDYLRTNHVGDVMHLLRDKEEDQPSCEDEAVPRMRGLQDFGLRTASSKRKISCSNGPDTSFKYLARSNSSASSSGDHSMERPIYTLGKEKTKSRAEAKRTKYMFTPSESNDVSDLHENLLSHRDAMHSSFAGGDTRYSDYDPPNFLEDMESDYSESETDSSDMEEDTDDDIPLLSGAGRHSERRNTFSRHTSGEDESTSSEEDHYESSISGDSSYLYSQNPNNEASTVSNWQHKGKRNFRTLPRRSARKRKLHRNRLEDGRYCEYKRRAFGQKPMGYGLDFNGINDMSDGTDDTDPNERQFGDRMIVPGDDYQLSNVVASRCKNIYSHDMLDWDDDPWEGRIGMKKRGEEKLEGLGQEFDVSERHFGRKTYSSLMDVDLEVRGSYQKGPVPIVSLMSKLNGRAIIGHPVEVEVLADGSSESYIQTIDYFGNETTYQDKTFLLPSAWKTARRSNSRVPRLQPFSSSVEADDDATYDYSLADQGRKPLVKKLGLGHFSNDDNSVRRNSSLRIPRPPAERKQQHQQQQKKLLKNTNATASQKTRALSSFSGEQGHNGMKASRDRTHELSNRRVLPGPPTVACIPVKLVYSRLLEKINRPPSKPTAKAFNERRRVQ

How the values were obtained:
[1] = target: Telomere repeat binding protein 4 (TRB4), yeast two-hybrid fusion (A. thaliana) (UniProt F4I7L1); experiment: two-hybrid; Matchmaker GAL4-based system, S. cerevisiae PJ69-4a; growth on SD -Leu -Trp -His (with or without 1 mM or 3 mM 3-AT) or SD -Leu -Trp -Ade at 30 °C; empty vector as negative control
[2] = target: Telomere repeat binding protein 4 (TRB4), yeast two-hybrid fusion (A. thaliana) (UniProt F4I7L1); experiment: as above; remark: listed apart in the source
[3] = target: Telomere repeat binding protein 5 (TRB5), yeast two-hybrid fusion (A. thaliana); experiment: as above
[4] = target: TRB5 (myc-tag), in vitro translated (A. thaliana); experiment: co-IP; in vitro translated proteins (TNT system): 35S-Met-labelled HA-tagged VRN2, EMF2 or POT1a mixed with myc-tagged TRB4 or TRB5, anti-myc antibody and Protein G magnetic particles; input, unbound and bound fractions on 10% SDS-PAGE
[5] = target: TRB4 (myc-tag), in vitro translated (A. thaliana) (UniProt F4I7L1); experiment: as above

Molecule | binding [1] | binding [2] | binding [3] | binding [4] | binding [5]
Recombination UV B-like protein RUVBL1, yeast two-hybrid fusion (from UniProt Q9FMR9) | binds | – | – | – | –
PWO1 full-length, yeast two-hybrid fusion (from UniProt Q9M9N3) | binds | – | – | – | –
B1 | – | binds | binds | – | –
B2 | – | binds | binds | – | –
B3 | – | binds | binds | – | –
B4 | – | binds | binds | – | –
B5 | – | – | – | binds | binds
B6 | – | binds | – | – | –
B7 | – | binds | binds | – | –
B8 | – | binds | binds | – | –
B9 | – | – | – | binds | binds
B10 | – | – | – | binds | binds
